Test results reported in patent US20240277796A1, “METHODS FOR INHIBITING RAS” (Revolution Medicines, Inc., priority 2021, published 2024).
Some of these results come from one statement about several compounds together.

System: K-Ras G12C or K-Ras G13C
Assay: Cross-linking of Ras proteins with compounds (covalent adduct formation, MS)
Type: binding
Settings: incubation timeframe of 4 hours

## C=CC(=O)N1CC[C@@H]2CN(C(=O)N(C)[C@H](C(=O)N[C@H]3Cc4nc(cs4)-c4ccc5c(c4)c(c(-c4cccnc4[C@H](C)OC)n5CC)CC(C)(C)COC(=O)[C@@H]4CCCN(N4)C3=O)C(C)C)C[C@@H]2C1 (atropisomer, axis not shown) [EA168]
  cross-linking percent: ≤ 0%

## C=CC(=O)N1CC[C@H]2CN(C(=O)N(C)[C@H](C(=O)N[C@H]3Cc4nc(cs4)-c4ccc5c(c4)c(c(-c4cccnc4[C@H](C)OC)n5CC)CC(C)(C)COC(=O)[C@@H]4CCCN(N4)C3=O)C(C)C)C[C@H]2C1 (atropisomer, axis not shown) [EA170]
  cross-linking percent: ≤ 0%
